Experimental findings from the supplement of paper PMC7666118 are described below.

Amino acid sequences for entries named in this document (tags omitted). A change or cut given only in a name is not applied to a line headed by its entry.
UniProt O14617: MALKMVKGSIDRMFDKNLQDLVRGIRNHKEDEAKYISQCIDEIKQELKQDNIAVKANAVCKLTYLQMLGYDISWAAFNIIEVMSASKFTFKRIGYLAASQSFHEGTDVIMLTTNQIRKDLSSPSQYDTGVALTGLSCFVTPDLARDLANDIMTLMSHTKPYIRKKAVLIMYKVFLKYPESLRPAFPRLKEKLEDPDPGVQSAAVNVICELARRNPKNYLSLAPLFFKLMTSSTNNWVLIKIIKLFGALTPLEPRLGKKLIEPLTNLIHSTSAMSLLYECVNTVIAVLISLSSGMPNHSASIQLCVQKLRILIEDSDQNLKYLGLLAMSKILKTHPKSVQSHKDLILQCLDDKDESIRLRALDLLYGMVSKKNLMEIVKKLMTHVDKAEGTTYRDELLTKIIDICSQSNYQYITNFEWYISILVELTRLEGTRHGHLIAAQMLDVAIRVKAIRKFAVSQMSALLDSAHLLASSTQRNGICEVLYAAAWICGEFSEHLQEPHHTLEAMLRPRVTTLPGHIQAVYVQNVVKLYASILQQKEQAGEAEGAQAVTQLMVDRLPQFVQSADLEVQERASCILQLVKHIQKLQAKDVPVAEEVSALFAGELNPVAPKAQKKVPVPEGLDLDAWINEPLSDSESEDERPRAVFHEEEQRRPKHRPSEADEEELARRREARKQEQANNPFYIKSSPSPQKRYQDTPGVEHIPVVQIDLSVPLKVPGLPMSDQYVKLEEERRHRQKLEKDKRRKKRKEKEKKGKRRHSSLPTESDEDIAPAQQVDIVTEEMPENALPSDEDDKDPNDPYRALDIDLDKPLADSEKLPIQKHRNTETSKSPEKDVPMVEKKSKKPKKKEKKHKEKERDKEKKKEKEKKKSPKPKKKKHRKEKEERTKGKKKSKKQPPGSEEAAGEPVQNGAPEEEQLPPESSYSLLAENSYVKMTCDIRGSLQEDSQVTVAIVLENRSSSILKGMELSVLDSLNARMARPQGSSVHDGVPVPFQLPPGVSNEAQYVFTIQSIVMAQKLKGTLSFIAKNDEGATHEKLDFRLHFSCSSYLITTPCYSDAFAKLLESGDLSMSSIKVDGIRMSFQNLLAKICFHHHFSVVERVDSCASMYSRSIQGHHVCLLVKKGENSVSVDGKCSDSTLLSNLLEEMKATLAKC
UniProt P07311: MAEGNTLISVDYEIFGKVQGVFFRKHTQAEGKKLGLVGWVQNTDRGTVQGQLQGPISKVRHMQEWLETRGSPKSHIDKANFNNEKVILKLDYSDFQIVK
UniProt P61966: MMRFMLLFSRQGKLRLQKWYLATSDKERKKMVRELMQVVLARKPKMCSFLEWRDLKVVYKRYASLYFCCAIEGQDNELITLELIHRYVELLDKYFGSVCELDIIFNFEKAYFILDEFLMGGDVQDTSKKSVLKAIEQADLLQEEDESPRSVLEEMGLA
UniProt O95236: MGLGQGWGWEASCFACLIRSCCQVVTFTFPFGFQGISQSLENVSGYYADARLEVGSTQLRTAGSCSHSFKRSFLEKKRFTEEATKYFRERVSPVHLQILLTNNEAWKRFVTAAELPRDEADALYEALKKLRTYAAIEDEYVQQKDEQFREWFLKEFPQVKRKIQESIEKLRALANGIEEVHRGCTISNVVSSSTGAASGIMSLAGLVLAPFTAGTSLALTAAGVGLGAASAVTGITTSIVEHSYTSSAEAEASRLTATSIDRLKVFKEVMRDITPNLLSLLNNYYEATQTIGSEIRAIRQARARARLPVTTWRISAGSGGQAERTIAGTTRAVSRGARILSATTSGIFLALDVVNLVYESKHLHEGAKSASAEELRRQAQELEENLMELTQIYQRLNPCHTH
UniProt P09972: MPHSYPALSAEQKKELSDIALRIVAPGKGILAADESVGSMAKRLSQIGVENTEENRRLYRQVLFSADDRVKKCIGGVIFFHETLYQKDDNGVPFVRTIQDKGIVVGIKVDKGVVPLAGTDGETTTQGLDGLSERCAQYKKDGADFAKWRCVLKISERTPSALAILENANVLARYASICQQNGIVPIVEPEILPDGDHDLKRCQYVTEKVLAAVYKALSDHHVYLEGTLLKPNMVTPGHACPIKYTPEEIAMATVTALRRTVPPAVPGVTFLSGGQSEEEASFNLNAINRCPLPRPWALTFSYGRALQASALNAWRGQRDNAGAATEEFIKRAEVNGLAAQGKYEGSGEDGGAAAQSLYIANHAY
UniProt Q86W34: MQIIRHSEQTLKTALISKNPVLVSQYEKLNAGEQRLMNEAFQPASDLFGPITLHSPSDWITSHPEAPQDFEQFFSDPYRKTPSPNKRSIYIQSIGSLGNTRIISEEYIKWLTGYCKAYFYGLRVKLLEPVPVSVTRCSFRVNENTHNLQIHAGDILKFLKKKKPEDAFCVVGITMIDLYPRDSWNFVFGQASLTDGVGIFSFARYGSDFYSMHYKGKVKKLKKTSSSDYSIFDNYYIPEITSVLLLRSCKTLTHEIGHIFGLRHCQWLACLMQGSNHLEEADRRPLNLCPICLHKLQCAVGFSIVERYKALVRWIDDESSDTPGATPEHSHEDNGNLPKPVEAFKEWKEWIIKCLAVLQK
UniProt P53680: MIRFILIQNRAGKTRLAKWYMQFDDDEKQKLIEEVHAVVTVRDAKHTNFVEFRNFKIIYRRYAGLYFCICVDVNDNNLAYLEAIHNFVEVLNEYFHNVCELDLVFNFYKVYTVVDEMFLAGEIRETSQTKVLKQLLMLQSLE
UniProt P48444: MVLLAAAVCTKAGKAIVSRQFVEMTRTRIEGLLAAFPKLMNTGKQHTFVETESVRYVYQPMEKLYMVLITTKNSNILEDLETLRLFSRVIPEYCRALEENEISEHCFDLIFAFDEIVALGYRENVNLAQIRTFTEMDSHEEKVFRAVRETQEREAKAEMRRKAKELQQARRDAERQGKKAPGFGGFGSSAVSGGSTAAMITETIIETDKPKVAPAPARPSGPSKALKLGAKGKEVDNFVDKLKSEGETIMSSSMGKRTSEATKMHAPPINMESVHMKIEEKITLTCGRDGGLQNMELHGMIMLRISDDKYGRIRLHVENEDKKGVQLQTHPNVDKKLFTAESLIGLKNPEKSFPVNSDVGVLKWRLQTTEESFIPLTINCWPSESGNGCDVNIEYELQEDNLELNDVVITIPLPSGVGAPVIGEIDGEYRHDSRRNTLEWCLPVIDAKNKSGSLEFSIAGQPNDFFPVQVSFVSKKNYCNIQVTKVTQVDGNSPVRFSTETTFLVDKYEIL
UniProt Q53RE8: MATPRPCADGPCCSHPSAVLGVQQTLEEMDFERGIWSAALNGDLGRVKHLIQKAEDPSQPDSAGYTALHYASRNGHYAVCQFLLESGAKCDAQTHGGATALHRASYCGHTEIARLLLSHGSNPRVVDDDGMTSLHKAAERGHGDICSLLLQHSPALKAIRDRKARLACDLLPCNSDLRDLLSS
UniProt Q8N8A2: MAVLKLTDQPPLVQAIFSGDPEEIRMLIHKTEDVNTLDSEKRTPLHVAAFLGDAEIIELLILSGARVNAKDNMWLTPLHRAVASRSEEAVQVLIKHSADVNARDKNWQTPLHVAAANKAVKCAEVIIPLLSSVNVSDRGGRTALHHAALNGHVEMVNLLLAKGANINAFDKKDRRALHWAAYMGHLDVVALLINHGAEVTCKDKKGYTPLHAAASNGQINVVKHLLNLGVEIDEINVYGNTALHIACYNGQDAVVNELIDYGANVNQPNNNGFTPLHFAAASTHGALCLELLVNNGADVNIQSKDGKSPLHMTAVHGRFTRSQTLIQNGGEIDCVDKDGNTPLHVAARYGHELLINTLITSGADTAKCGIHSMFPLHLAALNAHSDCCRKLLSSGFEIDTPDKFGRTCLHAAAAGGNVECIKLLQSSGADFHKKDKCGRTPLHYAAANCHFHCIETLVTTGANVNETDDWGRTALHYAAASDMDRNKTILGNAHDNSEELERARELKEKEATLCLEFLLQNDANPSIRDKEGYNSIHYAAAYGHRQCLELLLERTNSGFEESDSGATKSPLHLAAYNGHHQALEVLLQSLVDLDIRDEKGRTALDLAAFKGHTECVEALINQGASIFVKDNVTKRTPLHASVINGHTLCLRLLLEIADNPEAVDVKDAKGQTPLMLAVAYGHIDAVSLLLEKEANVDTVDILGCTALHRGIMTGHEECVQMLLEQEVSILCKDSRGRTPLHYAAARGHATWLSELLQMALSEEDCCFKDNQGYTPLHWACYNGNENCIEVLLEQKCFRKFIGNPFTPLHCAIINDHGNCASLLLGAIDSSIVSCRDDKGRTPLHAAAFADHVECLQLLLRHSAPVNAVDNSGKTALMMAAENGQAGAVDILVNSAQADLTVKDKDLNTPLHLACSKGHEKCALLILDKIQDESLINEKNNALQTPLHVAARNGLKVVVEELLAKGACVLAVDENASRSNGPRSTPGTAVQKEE
UniProt Q99490: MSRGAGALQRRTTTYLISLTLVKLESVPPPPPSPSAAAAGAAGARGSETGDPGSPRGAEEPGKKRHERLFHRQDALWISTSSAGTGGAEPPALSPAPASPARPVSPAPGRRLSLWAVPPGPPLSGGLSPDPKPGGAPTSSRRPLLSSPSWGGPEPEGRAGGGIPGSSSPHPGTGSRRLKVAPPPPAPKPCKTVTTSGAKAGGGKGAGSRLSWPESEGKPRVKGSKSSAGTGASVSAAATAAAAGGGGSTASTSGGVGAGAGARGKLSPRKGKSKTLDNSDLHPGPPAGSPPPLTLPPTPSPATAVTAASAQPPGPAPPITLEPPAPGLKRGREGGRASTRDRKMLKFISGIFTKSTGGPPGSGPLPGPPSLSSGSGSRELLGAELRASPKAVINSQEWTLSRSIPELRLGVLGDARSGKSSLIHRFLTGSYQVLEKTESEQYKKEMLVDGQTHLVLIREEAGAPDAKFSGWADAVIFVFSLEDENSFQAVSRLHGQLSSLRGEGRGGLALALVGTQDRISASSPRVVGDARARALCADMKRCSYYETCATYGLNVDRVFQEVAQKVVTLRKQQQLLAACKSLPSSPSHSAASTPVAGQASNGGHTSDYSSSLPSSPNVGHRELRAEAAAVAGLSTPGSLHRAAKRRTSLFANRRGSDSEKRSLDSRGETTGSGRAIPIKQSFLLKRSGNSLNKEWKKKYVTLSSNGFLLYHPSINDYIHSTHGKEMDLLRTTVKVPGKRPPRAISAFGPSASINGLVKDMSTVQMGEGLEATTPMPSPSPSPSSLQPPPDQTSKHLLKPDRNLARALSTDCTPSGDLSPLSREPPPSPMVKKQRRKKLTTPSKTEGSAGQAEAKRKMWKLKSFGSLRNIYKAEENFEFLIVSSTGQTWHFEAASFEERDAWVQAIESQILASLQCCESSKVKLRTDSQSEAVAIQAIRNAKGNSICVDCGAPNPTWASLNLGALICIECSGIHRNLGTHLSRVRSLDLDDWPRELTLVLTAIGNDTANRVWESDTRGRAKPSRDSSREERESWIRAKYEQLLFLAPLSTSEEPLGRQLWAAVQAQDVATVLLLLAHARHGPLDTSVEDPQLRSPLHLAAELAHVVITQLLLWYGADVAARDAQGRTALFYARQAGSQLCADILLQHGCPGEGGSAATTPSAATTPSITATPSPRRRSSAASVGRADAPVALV
UniProt P18085: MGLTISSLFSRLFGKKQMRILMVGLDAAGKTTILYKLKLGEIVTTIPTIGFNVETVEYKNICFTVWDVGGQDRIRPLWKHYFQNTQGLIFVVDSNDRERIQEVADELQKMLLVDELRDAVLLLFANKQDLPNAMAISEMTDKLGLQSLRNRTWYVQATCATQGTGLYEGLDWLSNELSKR
UniProt Q9NZ32, whole entry: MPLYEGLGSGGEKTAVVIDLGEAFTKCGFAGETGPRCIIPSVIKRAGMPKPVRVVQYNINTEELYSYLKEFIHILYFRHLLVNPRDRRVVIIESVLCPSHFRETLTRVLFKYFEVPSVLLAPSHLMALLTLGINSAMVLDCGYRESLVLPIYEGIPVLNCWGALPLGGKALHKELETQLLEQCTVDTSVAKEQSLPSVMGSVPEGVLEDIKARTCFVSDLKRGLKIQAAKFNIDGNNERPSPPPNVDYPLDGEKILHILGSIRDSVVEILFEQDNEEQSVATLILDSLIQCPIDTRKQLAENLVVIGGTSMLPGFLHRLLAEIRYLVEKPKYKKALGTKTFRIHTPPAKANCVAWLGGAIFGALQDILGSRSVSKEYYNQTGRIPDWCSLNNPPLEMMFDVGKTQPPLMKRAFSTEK
UniProt Q9BQE5: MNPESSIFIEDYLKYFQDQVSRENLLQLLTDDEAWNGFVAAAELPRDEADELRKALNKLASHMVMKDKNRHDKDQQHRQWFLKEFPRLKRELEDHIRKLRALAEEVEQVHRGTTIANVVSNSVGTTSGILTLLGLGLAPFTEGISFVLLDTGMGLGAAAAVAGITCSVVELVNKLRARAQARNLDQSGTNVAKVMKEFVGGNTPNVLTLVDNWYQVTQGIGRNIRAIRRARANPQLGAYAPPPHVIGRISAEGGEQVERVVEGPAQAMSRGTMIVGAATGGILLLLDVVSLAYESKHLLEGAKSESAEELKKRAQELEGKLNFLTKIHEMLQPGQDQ

The other results are listed elsewhere or left out.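 The calls were made as follows: active = dose-dependent thermal stabilisation significant by F-test of dose-response against flat model at 10% FDR; inactive = not significant.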

Compound in this experiment: Nc1nc2c(ncn2[C@@H]2O[C@H](COP(=O)(O)OP(=O)(O)OP(=O)(O)O)[C@@H](O)[C@H]2O)c(=O)[nH]1
Nature of the experiment: dose-dependent thermal stabilisation call (2D-TPP, DLPTP, 10% FDR) (binary (1 = stabilised)); higher = stabilised by the compound. To be noted: system: Jurkat gel-filtered lysate; concentration range 1-500 µM. On the procedure:
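2D thermal proteome profiling in gel-filtered Jurkat E6.1 lysate (2 mg/ml) treated with NaGTP (0, 1, 10, 100, 500 uM) for 10 min at room temperature, then heated 3 min at one of 12 temperatures (42-63.9 C). Soluble protein was quantified by TMT10 MS. The value is the DLPTP call of the paper: dose-dependent thermal stabilisation over all temperatures at 10% FDR (F-test of a dose-response against a flat model); one experiment, one call per tested protein.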
Consider AMN1 (UniProt Q8IY45), for which the “dose-dependent thermal stabilisation call” value is inactive: 0. The figure for AMPD2 (UniProt Q01433) is inactive: 0.

For the target AGO1 (UniProt Q9UL18), the “dose-dependent thermal stabilisation call” value is inactive: 0.

On to AP3D1 (UniProt O14617), for which the “dose-dependent thermal stabilisation call” value is inactive: 0.

In the case of ACYP1 (UniProt P07311), the “dose-dependent thermal stabilisation call” value was inactive: 0. The figure for ADAM10 (UniProt O14672) is inactive: 0; for APPL1 (UniProt Q9UKG1) it is inactive: 0. The figure for ACTR3B (UniProt Q9P1U1) is inactive: 0; for AP1S1 (UniProt P61966) it is inactive: 0. The value for ABHD10 (UniProt Q9NUJ1) was inactive: 0; that for AIFM1 (UniProt O95831) was inactive: 0.

For the target APOL3 (UniProt O95236), the “dose-dependent thermal stabilisation call” value was inactive: 0. The value for AKAP9 (UniProt Q99996) was inactive: 0; that for AP4E1 (UniProt Q9UPM8) was inactive: 0; that for ALDOC (UniProt P09972) was inactive: 0.

As to AGFG2 (UniProt O95081), the “dose-dependent thermal stabilisation call” value was inactive: 0. As to ANKFY1 (UniProt Q9P2R3), the “dose-dependent thermal stabilisation call” value was active: 1. The figure for AMZ2 (UniProt Q86W34) is inactive: 0; for ADNP (UniProt Q9H2P0) it is inactive: 0; for AK3 (UniProt Q9UIJ7) it is inactive: 0. The value for ANKRD54 (UniProt Q6NXT1) was inactive: 0. Turning to ACADVL (UniProt P49748), the “dose-dependent thermal stabilisation call” value is inactive: 0. The value for AP2S1 (UniProt P53680) was inactive: 0; that for ARCN1 (UniProt P48444) was inactive: 0.

Turning to ADAR (UniProt P55265), the “dose-dependent thermal stabilisation call” value is inactive: 0. The figure for AAR2 (UniProt Q9Y312) is inactive: 0; for AK2 (UniProt P54819) it is inactive: 0. In the case of ANKRD39 (UniProt Q53RE8), the “dose-dependent thermal stabilisation call” value is inactive: 0. The figure for ANKRD11 (UniProt Q6UB99) is inactive: 0; for AGL (UniProt P35573) it is inactive: 0; for ANKRD44 (UniProt Q8N8A2) it is inactive: 0. The value for ACAD8 (UniProt Q9UKU7) was inactive: 0; that for AP2A2 (UniProt O94973) was inactive: 0; that for AGAP2 (UniProt Q99490) was inactive: 0. The figure for AIDA (UniProt Q96BJ3) is inactive: 0. Regarding ARHGAP15 (UniProt Q53QZ3), the “dose-dependent thermal stabilisation call” value was active: 1. Turning to ARF4 (UniProt P18085), the “dose-dependent thermal stabilisation call” value is active: 1. The figure for AHNAK (UniProt Q09666) is inactive: 0; for ACTR10 (UniProt Q9NZ32) it is inactive: 0; for APOL2 (UniProt Q9BQE5) it is inactive: 0.
